{"source": "PubChem BioAssay AID504764 – Drosophila RNAi Screening Center, 2011", "purpose": "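Knock-downs that raise or lower a Notch target reporter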 (primary screen)", "system": "Drosophila Kc167 cells", "reagent": "long dsRNA against Drosophila genes", "time to read-out": "about 5 days (4 days dsRNA, then 24 h after transfection)", "conditions": "transfection of constitutively active membrane-tethered Notch lacking the extracellular domain, read 24 h later", "measured": "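Light from a Notch-responsive E(spl)m3 luciferase reporter under active Notch, with control-promoter and no-Notch reporter wells to normalise; raw counts from paired wells a and b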", "scale": "induced reporter light, run 1, well a and induced reporter light, run 1, well b: higher = more light from the Notch target reporter with active Notch; control promoter light, run 1, well a and control promoter light, run 1, well b: higher = more light from the viral control promoter (cell number, transfection, viability); uninduced reporter light, run 1, well a: higher = more light from the Notch target reporter without active Notch", "active means": "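Wells with low control signal or poorly matching duplicates excluded; duplicates averaged; per source plate, z beyond ±2 for induced/control log2 ratio or beyond ±1.8 for induced/uninduced marks a hit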", "calls": "active = modifier hit (raised or lowered Notch signal); inactive = not a hit", "note": "The screen tested about 22,000 reagents; below is a random part of those with a known target gene and a result. Over the whole deposit, 403 (1.9%) were called active. 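Unnormalised raw counts per well; ratio z-scores behind the hit calls and whether each hit raises or lowers signal are not deposited.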 The numbers tell different reagents against one gene apart. Not stated in the record: the amount of reagent."}
{"gene knocked down": "dve", "dsRNA no.": 1, "induced reporter light, run 1, well a": 52395, "induced reporter light, run 1, well b": 43345, "control promoter light, run 1, well a": 55315, "control promoter light, run 1, well b": 66195, "uninduced reporter light, run 1, well a": 2560, "outcome": "inactive"}
{"gene knocked down": "sinah", "dsRNA no.": 1, "induced reporter light, run 1, well a": 2.06e5, "induced reporter light, run 1, well b": 1.79e5, "control promoter light, run 1, well a": 2.74e5, "control promoter light, run 1, well b": 1.68e5, "uninduced reporter light, run 1, well a": 7380, "outcome": "inactive"}
{"gene knocked down": "sinah", "dsRNA no.": 2, "outcome": "inactive"}
{"gene knocked down": "Adk2", "dsRNA no.": 1, "induced reporter light, run 1, well a": 1.54e5, "induced reporter light, run 1, well b": 1.62e5, "control promoter light, run 1, well a": 1.09e5, "control promoter light, run 1, well b": 80925, "uninduced reporter light, run 1, well a": 14365, "outcome": "inactive"}
{"gene knocked down": "dhd", "dsRNA no.": 1, "induced reporter light, run 1, well a": 2.31e5, "induced reporter light, run 1, well b": 1.70e5, "control promoter light, run 1, well a": 2.33e5, "control promoter light, run 1, well b": 2.11e5, "uninduced reporter light, run 1, well a": 14910, "outcome": "inactive"}
{"gene knocked down": "Gr77a", "dsRNA no.": 1, "induced reporter light, run 1, well a": 2.70e5, "induced reporter light, run 1, well b": 2.44e5, "control promoter light, run 1, well a": 3.38e5, "control promoter light, run 1, well b": 3.63e5, "uninduced reporter light, run 1, well a": 19988, "outcome": "inactive"}
{"gene knocked down": "cic", "dsRNA no.": 1, "induced reporter light, run 1, well a": 14000, "induced reporter light, run 1, well b": 17342, "control promoter light, run 1, well a": 14770, "control promoter light, run 1, well b": 14440, "uninduced reporter light, run 1, well a": 3600, "outcome": "inactive"}
{"gene knocked down": "cic", "dsRNA no.": 2, "induced reporter light, run 1, well a": 16155, "induced reporter light, run 1, well b": 12915, "control promoter light, run 1, well a": 14910, "control promoter light, run 1, well b": 15655, "uninduced reporter light, run 1, well a": 4005, "outcome": "inactive"}
{"gene knocked down": "cic", "dsRNA no.": 3, "induced reporter light, run 1, well a": 1.46e5, "induced reporter light, run 1, well b": 1.28e5, "control promoter light, run 1, well a": 1.44e5, "control promoter light, run 1, well b": 1.52e5, "uninduced reporter light, run 1, well a": 12005, "outcome": "inactive"}
{"gene knocked down": "cic", "dsRNA no.": 4, "induced reporter light, run 1, well a": 83495, "induced reporter light, run 1, well b": 79020, "control promoter light, run 1, well a": 77860, "control promoter light, run 1, well b": 97790, "uninduced reporter light, run 1, well a": 6790, "outcome": "inactive"}
{"gene knocked down": "CG6178", "dsRNA no.": 1, "induced reporter light, run 1, well a": 1.76e5, "induced reporter light, run 1, well b": 2.10e5, "control promoter light, run 1, well a": 2.47e5, "control promoter light, run 1, well b": 2.60e5, "uninduced reporter light, run 1, well a": 19200, "outcome": "inactive"}
{"gene knocked down": "IntS14", "dsRNA no.": 1, "induced reporter light, run 1, well a": 1.94e5, "induced reporter light, run 1, well b": 1.90e5, "control promoter light, run 1, well a": 1.92e5, "control promoter light, run 1, well b": 1.98e5, "uninduced reporter light, run 1, well a": 15990, "outcome": "inactive"}

Single entries from the entries so far.
dve, outcome → inactive
Adk2, outcome: inactive

Next records follow.
{"gene knocked down": "CG15922", "dsRNA no.": 1, "induced reporter light, run 1, well a": 2.01e5, "induced reporter light, run 1, well b": 1.83e5, "control promoter light, run 1, well a": 1.58e5, "control promoter light, run 1, well b": 1.82e5, "uninduced reporter light, run 1, well a": 12555, "outcome": "inactive"}
{"gene knocked down": "Rh50", "dsRNA no.": 1, "induced reporter light, run 1, well a": 1.49e5, "induced reporter light, run 1, well b": 1.25e5, "control promoter light, run 1, well a": 93230, "control promoter light, run 1, well b": 59745, "uninduced reporter light, run 1, well a": 12195, "outcome": "inactive"}
{"gene knocked down": "CG5934", "dsRNA no.": 1, "induced reporter light, run 1, well a": 1.28e5, "induced reporter light, run 1, well b": 1.35e5, "control promoter light, run 1, well a": 1.72e5, "control promoter light, run 1, well b": 1.77e5, "uninduced reporter light, run 1, well a": 11210, "outcome": "inactive"}
{"gene knocked down": "CG18666", "dsRNA no.": 1, "induced reporter light, run 1, well a": 1.14e5, "induced reporter light, run 1, well b": 1.35e5, "control promoter light, run 1, well a": 67615, "control promoter light, run 1, well b": 94395, "uninduced reporter light, run 1, well a": 13900, "outcome": "inactive"}
{"gene knocked down": "Acyp", "dsRNA no.": 1, "induced reporter light, run 1, well a": 1.32e5, "induced reporter light, run 1, well b": 1.43e5, "control promoter light, run 1, well a": 1.39e5, "control promoter light, run 1, well b": 1.45e5, "uninduced reporter light, run 1, well a": 12330, "outcome": "inactive"}
{"gene knocked down": "Met", "dsRNA no.": 1, "induced reporter light, run 1, well a": 1.17e5, "induced reporter light, run 1, well b": 1.10e5, "control promoter light, run 1, well a": 1.80e5, "control promoter light, run 1, well b": 1.78e5, "uninduced reporter light, run 1, well a": 8405, "outcome": "inactive"}
